This is an account of results in paper PMC8357189.

The exact form of at least one protein or probe is not confirmed. Results from cells or extracts need not show a direct contact. For part of these data: Negatives hold for the conditions tested. Protein sequences can lack the tags named with them.

The target in data set [1] is T1, RHOX10-HA (mouse) (UniProt Q4TU83).
T1 sequence (looked up, limits assumed): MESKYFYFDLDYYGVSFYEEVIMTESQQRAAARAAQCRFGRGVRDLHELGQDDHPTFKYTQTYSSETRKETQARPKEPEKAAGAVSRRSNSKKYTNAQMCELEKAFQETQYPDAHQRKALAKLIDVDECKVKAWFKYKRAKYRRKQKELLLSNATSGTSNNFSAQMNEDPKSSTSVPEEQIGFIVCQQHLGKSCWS
The data set can be described thus: EMSA, supershift. The following applies: anti-HA supershift in lane 4, lane 5 without antibody; LightShift 1X binding buffer, 2.5% glycerol, 5 mM MgCl2, 1 ug poly(dI-dC), 0.05% NP-40, 2.5 nM probe, 3 ug nuclear extract, 20 uL, room temperature 20 min; protein in an extract; protein details: HA; label: 3' biotin.

Data set [2] has as its target T1, RHOX10-HA (mouse). The data set can be described thus: competition with a labelled probe. The following applies: 200-fold excess unlabeled over labeled N1, signal greatly reduced; LightShift 1X binding buffer, 2.5% glycerol, 5 mM MgCl2, 1 ug poly(dI-dC), 0.05% NP-40, 2.5 nM probe, 3 ug nuclear extract, 20 uL, room temperature 20 min; protein in an extract; protein details: HA.

Data set [3] concerns the target T1, RHOX10-HA (mouse). The data set is described as follows: EMSA. The following applies: LightShift 1X binding buffer, 2.5% glycerol, 5 mM MgCl2, 1 ug poly(dI-dC), 0.05% NP-40, 2.5 nM probe, 3 ug nuclear extract, 20 uL, room temperature 20 min; protein in an extract; protein details: HA; label: 3' biotin. (In general: Mobility shift assays separate free from complexed probe on a gel.)

Take “CTCCTCCAAGCAACCATTGGCGCTCAGCTCAATTCC (double strand) [Dmrt1 promoter probe]”: the binding result in data set [1] is on record as “binds”.

Turning to “CTCCTCCAAGCAACCATTGGCGCTCAGCTCAATTCC (double strand) [unlabeled Dmrt1 promoter competitor]”, in data set [2], the binding result is “binds”.

Regarding “CTCCTCCAAGCAACCCGCTCAGCTCAATTCC (double strand) [mutated Dmrt1 probe (CCAAT deleted)]”, the binding result in data set [3] is recorded as “no binding”.
